At least one peptide structure holds a part that was inferred or is arguable (an end, a ring closure or a residue). Square brackets hold non-standard residues; d marks the D form. Peptide text beside a SMILES is read from it. * marks the point of attachment. MeO(CH2CH2O)23CH2CH2CO = COCCOCCOCCOCCOCCOCCOCCOCCOCCOCCOCCOCCOCCOCCOCCOCCOCCOCCOCCOCCOCCOCCOCCOCCC(=O)*; Ahx = NCCCCCC(=O)O
Key:
CF-1 mice [1] = test: mouse carrageenan assay of inflammatory pain; format: in vivo; details: i.p. 2 h prior to testing
CF-1 mice [2] = test: acetic acid induced abdominal constriction (writhing) assay; format: in vivo, mouse; details: 4 mg/kg i.p., n=3-4 per group
rats = test: rat partial sciatic nerve ligation model of neuropathic pain; format: in vivo; details: 8 mg/kg i.p., n=8 per group

CC[C@H](C)[C@H](NC(=O)[C@H](Cc1ccc(O)cc1)NC(=O)[C@H](Cc1c[nH]cn1)NC(=O)[C@H](CCCNC(=N)N)NC(=O)[C@H](C)NC(=O)CCCCCNC(=O)[C@H](CCCCNC(=O)CCOCCOCCOCCOCCOCCOCCOCCOCCOCCOCCOCCOCCOCCOCCOCCOCCOCCOCCOCCOCCOCCOCCOCCOC)NC(=O)[C@H](CCCCN)NC(=O)[C@H](CCCCN)NC(=O)[C@H](Cc1ccc(O)cc1)NC(C)=O)C(=O)N[C@@H](CC(N)=O)C(=O)N[C@@H](CC(C)C)C(=O)N[C@H](C(=O)N[C@H](C(=O)N[C@@H](CCCNC(=N)N)C(=O)N[C@@H](CCC(N)=O)C(=O)N[C@@H](CCCNC(=N)N)C(=O)N[C@@H](Cc1ccc(O)cc1)C(N)=O)[C@@H](C)O)[C@@H](C)CC [NPY-B42] (Ac-YKKK(MeO(CH2CH2O)23CH2CH2CO)[Ahx]ARHYINLITRQRY-NH2)
reversal of the carrageenan induced hyperalgesia relative to controls (CF-1 mice [1]; 4 mg/kg dose): significant reversal
withdrawal latency compared to carrageenan controls (CF-1 mice [1]; varying doses, result in words): increased
time of peak effect post i.p. administration (CF-1 mice [2]): 30 min
number of abdominal constrictions compared to vehicle (CF-1 mice [2]; result in words): reduced
time of peak activity post i.p. administration (rats): 2 h
50% paw withdrawal threshold (PWT) compared to pre-drug untreated controls (rats; result in words): higher

From patent publication US10172909B2, “Neuropeptide analogs, compositions, and methods for treating pain” (NeuroAdjuvants, Inc., priority 2010, dated 2019)
